Source: paper PMC11915848
These are yes or no findings as the source states them, for the method shown. In cells and extracts the contact can be indirect. Binding calls can cover weak binding; strength is not graded here. Where a sequence is shown, tags or fusion partners need not be part of it.

Biological target: T1, STT3B-3xFlag (UniProt Q8TCJ2)
T1 sequence: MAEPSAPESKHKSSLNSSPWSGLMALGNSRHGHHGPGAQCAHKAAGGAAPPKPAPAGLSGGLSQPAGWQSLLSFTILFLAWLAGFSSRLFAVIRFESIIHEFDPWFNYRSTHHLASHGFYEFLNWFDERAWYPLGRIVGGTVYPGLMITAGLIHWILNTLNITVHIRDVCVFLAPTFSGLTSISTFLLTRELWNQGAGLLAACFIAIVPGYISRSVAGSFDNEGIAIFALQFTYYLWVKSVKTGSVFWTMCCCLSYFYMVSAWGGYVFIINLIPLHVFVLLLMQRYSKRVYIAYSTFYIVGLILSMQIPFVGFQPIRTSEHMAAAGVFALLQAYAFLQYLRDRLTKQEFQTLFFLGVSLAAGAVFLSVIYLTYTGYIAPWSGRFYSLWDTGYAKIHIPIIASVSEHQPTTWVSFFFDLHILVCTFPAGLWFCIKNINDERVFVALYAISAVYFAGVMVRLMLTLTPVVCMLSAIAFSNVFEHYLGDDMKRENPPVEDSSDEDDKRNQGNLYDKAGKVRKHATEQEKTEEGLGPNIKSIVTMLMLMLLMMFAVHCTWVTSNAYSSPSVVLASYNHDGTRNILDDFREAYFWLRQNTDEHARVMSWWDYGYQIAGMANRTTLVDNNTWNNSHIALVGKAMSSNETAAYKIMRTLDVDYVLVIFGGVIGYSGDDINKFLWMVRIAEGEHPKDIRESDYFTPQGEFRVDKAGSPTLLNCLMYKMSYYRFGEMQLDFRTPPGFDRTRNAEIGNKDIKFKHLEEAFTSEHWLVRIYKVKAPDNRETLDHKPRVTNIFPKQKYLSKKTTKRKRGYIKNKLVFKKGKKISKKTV
Experiment: co-IP; HEK293T and LLC-PK1 cells co-transfected with STT3B-Flag (or pCMV-Flag) and PEDV S-His for 24 hours; lysed in RIPA buffer with PMSF; lysates incubated with anti-Flag magnetic beads, washed with PBST, eluted with 50 mM glycine pH 2.8; blotted with Flag and His antibodies

PEDV spike (S) protein, His-tagged (porcine epidemic diarrhea virus)
binding: binds
